According to article PMC5440525:
These are yes or no findings as the source states them, for the method shown. Binding can be weak; no strength is given. Where a sequence is shown, tags or fusion partners need not be part of it.

The chains behind the UniProt entries cited, without tags or fusion partners. Where a name states a change or a piece, a line headed by the entry shows the natural chain unless it says otherwise.
UniProt P20029: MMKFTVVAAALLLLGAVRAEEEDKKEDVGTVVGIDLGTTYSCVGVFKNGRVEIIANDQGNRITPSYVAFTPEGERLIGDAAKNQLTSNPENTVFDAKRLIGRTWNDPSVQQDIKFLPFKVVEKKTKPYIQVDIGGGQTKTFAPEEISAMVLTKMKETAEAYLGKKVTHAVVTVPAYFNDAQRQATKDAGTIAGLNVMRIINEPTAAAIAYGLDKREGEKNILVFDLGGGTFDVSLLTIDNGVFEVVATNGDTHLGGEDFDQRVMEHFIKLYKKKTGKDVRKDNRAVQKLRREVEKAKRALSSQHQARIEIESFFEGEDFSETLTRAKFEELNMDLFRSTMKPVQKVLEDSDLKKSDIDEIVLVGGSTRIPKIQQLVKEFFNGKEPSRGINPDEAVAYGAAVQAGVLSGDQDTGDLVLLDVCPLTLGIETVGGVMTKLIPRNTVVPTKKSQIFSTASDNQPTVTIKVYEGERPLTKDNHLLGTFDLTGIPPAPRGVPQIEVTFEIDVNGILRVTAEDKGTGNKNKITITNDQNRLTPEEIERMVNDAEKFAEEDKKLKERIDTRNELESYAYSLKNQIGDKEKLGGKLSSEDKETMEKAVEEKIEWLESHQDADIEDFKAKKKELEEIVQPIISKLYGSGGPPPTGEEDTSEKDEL

Target: T1, Recombinant fusion protein CD14-Fc (mouse) (UniProt P10810)
T1 sequence: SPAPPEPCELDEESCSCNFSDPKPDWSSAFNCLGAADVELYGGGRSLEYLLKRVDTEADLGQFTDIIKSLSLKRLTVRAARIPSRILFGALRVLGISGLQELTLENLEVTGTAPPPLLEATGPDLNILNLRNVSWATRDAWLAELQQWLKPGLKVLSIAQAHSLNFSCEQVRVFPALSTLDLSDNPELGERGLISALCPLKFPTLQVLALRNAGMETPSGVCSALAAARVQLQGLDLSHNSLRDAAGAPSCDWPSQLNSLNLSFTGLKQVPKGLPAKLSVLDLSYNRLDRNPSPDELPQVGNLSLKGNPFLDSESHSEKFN
Assay: pull-down; protein–protein interactive precipitation assay: CD14-Fc or Fc control immobilized onto protein G-agarose, incubated with GRP78 at 4°C overnight; immunoblot; both purified

## Recombinant mouse GRP78 (GST removed by thrombin cleavage) (from UniProt P20029)
  binding: binds
